Hit rate of the full screen: of about 330,000 compounds, about 230 (0.07%) were called active. Inconclusive results, whose numbers are uncertain, are shown with a selection of clear calls.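 Rule for the calls: active = more than half of a compound's replicate wells show inhibition beyond 50%, single wells judged on their own value; inconclusive = some, but no more than half, of replicates pass 50% inhibition; inactive = no replicate passes 50% inhibition.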
Target: Lysine-specific demethylase 4C (Homo sapiens) (UniProt Q9H3R0)
Assay: inhibitors of GASC-1 histone demethylase, primary screen, biochemical, fluorescence, DELFIA europium (AID 2099);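 note: signal counts dimethyl H3K9 product captured on neutravidin plate; 0% = median of DMSO wells and 100% = 0.3 times that DMSO median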
Settings: GST-JMJD2C(1-420) H3K9me3 demethylation, at 2.35 µM, stronger effect = higher value

Amino acid sequences for entries named in this document (tags omitted). Residues count along the entry.
UniProt Q9H3R0, 1-420 limits assumed: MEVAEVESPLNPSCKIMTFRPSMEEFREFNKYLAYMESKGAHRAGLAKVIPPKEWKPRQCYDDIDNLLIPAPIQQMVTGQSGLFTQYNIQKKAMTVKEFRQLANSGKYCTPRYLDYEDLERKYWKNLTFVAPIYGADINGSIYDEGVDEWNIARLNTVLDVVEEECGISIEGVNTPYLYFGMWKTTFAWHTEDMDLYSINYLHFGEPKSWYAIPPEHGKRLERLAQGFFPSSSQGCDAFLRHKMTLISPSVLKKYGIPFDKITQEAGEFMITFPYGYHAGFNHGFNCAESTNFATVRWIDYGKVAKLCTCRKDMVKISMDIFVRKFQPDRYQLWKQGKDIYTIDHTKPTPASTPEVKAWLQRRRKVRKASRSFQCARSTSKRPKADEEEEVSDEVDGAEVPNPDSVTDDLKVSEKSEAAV

Row | SMILES | inhibition
1 | CCOc1cc(Br)cc(C(c2c(C(=O)O)[nH]c3ccccc23)c2c(C(=O)O)[nH]c3ccccc23)c1O | inconclusive: -69.8%
2 | CCOc1ccccc1NC(=O)CSc1nc(=O)n(Cc2ccccn2)c2c1CCC2 | inconclusive: -60%
3 | Cc1ccc(NC(=O)Nc2ccccc2C(N)=O)cc1 | inactive: 2.67%
4 | COc1ccccc1C(=O)Nc1ccccc1SC | inconclusive: -165%
5 | Cc1cccc(NC(=S)NCc2ccc(F)cc2)c1C | inconclusive: -78.1%
6 | Cc1ccc(NC(=O)CN(C)S(=O)(=O)c2cccc3cccnc23)cc1C | inactive: -7.31%
7 | COc1cc(C(=O)N2C[C@@H]3CCC[C@H]2C3)ccc1OC1CCN(C(C)=O)CC1 | inconclusive: -52%
8 | CC(Oc1ccc2c3c(c(=O)oc2c1)CCCC3)C(=O)NCC(O)c1ccccc1 (stereo not drawn) | inconclusive: -82%
9 | O=C(CN1CCN(S(=O)(=O)N2CCCCCC2)CC1)Nc1ccc(Br)cc1 | inconclusive: -56%
10 | CC(C)NC(=O)c1onc(CSc2cccc3ccccc23)c1C(=O)O | inactive: 0.964%
11 | C=C(C)CN(CC)C(=O)CSc1nc(O)cc(=O)n1C1CCCC1 | inconclusive: -55.6%
12 | O=C(/C=C/c1cccs1)Nc1ccncc1 | inactive: 0.724%
13 | N#Cc1c(-c2ccc(F)cc2)cc(-c2cccs2)nc1SCC(=O)O | inconclusive: -76.1%
14 | Cc1nnc(N2CCOCC2)c2nn(-c3ccccc3)c(C)c12 | inconclusive: -54%
15 | COc1ccc(-c2n[nH]c3c2CN(C(=O)c2ccc(F)cc2)CC3)cc1 | inconclusive: -102%
16 | COc1ccc(CC(=O)Nc2cccc(SC)c2)cc1OC | inconclusive: -53.2%
17 | O=C(N/N=C/C(Br)=C/c1ccccc1)C1CC1 | inactive: -2.15%
18 | COC(=O)c1ccc(N)cc1O | inactive: 1.71%
19 | Cc1cccc(N(Cc2ccccc2)C(=O)c2ccc(S(C)(=O)=O)cc2)c1 | inconclusive: -59.5%
20 | COc1cccc(N2CC(C(=O)Nc3ccc(F)cc3)CC2=O)c1 (stereo not drawn) | inconclusive: -56.1%
21 | NC(=O)[C@H]1CC2(CC(c3cccc(NC(=O)COc4ccc(Cl)cc4)c3)=NO2)CN1C(=O)CC(c1ccccc1)c1ccccc1 (stereo partly drawn) | inconclusive: -148%
22 | CCOc1ccccc1CN1CCN(C2CCC2)CC1CCO (stereo not drawn) | inconclusive: -67.8%

Some of the entries so far, tab-delimited.
Row	SMILES	inhibition
4	COc1ccccc1C(=O)Nc1ccccc1SC	inconclusive: -165%
7	COc1cc(C(=O)N2C[C@@H]3CCC[C@H]2C3)ccc1OC1CCN(C(C)=O)CC1	inconclusive: -52%

Carrying on:

Row | SMILES | inhibition
23 | COc1cc2c(cc1OC)C(C(=O)N1CCCC1)C(c1ccccc1F)N(C)C2=O (stereo not drawn) | inconclusive: -62.2%
24 | CC(C)[C@H](NC(=O)N1CCn2c1nc1ccccc12)C(=O)N[C@H](Cc1ccccc1)C(=O)O | inconclusive: -67.3%
25 | C=CCC(C#N)(c1ccc(OC)c(OC)c1)c1cnccn1 (stereo not drawn) | inconclusive: -225%
26 | O=C1C(=O)N(CC2CCCO2)C(c2ccccc2[N+](=O)[O-])/C1=C(/O)c1ccccc1 (stereo not drawn) | inactive: -10.2%
27 | c1ccc(-c2nc(-c3ccncc3)no2)cc1 | inconclusive: -186%
28 | O=C(OCc1nnc(-c2cccs2)o1)C1=NN(c2ccccc2)C(=O)CC1 | inactive: -0.925%
29 | O=C1C(=O)N(CCN2CCOCC2)C(c2ccccn2)/C1=C(/O)c1ccc(Cl)cc1 (stereo not drawn) | inconclusive: -163%
30 | CCN(C(=S)NC(=O)C1CC1)c1ccccc1 | inconclusive: -52.7%
31 | COc1cc(C(C(=O)NC2CCCCC2)N(Cc2cccs2)C(=O)Cc2c[nH]c3ccccc23)cc(OC)c1OC (stereo not drawn) | active: 52.4%
32 | CSC1=N/C(=C\c2ccc(Br)o2)C(=O)S1 | inactive: 32%
33 | O=C(NCCCN1CCCC1=O)c1ccc(S(=O)(=O)Nc2cccc(C(F)(F)F)c2)cc1 | inconclusive: -123%
34 | COc1ccccc1NC(=O)COC(=O)c1[nH]c(=O)[nH]c(=O)c1N | active: 53.2%
35 | CSc1ccc(C2c3[nH]c4ccccc4c3CCN2C(=O)c2cc(C)n(C)n2)cc1 (stereo not drawn) | inactive: -1.97%
36 | CCc1ccc(CN(C)C(=O)CCc2nc3ccccc3n(-c3ccc(OC)cc3)c2=O)cc1 | inactive: 2.26%
37 | Cc1cccc(NC(=O)CC2Nc3cccc4cccc(c34)NC2=O)c1 (stereo not drawn) | active: 51.4%
38 | COc1ccc(CC(=O)c2ccccc2C(=O)O)cc1 | inconclusive: -152%
39 | COc1ccccc1C(=O)C1CCCN(C(=O)c2ccccc2Cl)C1 (stereo not drawn) | inconclusive: -53.7%
40 | COc1ccc([C@@H]2C[C@@H](c3ccccc3)Oc3cc(OC)cc(OC)c32)cc1 | inconclusive: -222%
41 | Cc1cc(=O)oc2cc(OC(C)C(=O)NCC3CCC(C(=O)O)CC3)ccc12 (stereo not drawn) | inactive: -12.8%
42 | COc1ccccc1NC(=O)CCc1nc2sc3c(c2c(=O)[nH]1)CCCC3 | inconclusive: -26.2%
43 | Cn1c(=O)cc(SCC(=O)Nc2ccccn2)c2ccccc21 | inactive: 37.6%
